Source: PubChem BioAssay AID1259405 (NCATS, 2018)
The deposit covers about 50,000 reagents; below is a random part of them. Over the whole deposit, about 4,000 (8%) were called active. 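Mouse siRNA library applied to hamster cells; one well for each siRNA.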 Reagents against one gene are numbered here.

Test: 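Silenced genes that increase secreted GFP made by CHO cells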 (primary screen)
Cells: Chinese hamster CHO-K1 ovary cells with stable secreted eGFP expression
Reagent: single siRNA against mouse genes, 0.8 pmol siRNA per well (2 µl of 400 nM stock)
Timing: 3 days
Measured: 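Percent of the per-plate non-targeting control median for intracellular GFP per well by laser scanning cytometry and for cell viability by ATP luminescence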
Reading the numbers: GFP, % of control: higher = more GFP per well, higher productivity; viability (ATP), % of control: higher = more viable cells (more ATP)
Active means: 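Called active when intracellular GFP, relative to negative control, is at or above 120%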

| gene knocked down | reagent | GFP, % of control | viability (ATP), % of control | call |
| --- | --- | --- | --- | --- |
| Ankmy2 (GeneID 217473) | 1 | 138 | 105 | active |
| Ankmy2 (GeneID 217473) | 2 | 45.2 | 61.9 | inactive |
| Ankmy2 (GeneID 217473) | 3 | 112 | 55.4 | inactive |
| Arl5a (GeneID 75423) | 1 | 61.7 | 68.4 | inactive |
| Arl5a (GeneID 75423) | 2 | 95.4 | 75.5 | inactive |
| Arl5a (GeneID 75423) | 3 | 58.8 | 69.2 | inactive |
| Hemk2 (GeneID 67768) | 1 | 183 | 80.6 | active |
| Hemk2 (GeneID 67768) | 2 | 74.6 | 62.1 | inactive |
| Hemk2 (GeneID 67768) | 3 | 67.4 | 66.5 | inactive |
| Kcnu1 (GeneID 16532) | 1 | 129 | 80 | active |
| Kcnu1 (GeneID 16532) | 2 | 154 | 94.8 | active |
| Kcnu1 (GeneID 16532) | 3 | 57.5 | 83.1 | inactive |
| Celsr3 (GeneID 107934) | 1 | 73.1 | 69.4 | inactive |
| Celsr3 (GeneID 107934) | 2 | 71.8 | 81.5 | inactive |
| Celsr3 (GeneID 107934) | 3 | 100 | 94.1 | inactive |
| Slc35a5 (GeneID 74102) | 1 | 100 | 57.7 | inactive |
| Slc35a5 (GeneID 74102) | 2 | 71.1 | 77 | inactive |
| Slc35a5 (GeneID 74102) | 3 | 57.4 | 79.5 | inactive |
| Dcaf15 (GeneID 212123) | 1 | 52.1 | 52.7 | inactive |
| Dcaf15 (GeneID 212123) | 2 | 73.4 | 78.8 | inactive |
| Dcaf15 (GeneID 212123) | 3 | 85.9 | 92.4 | inactive |
| Itpa (GeneID 16434) | 1 | 65.1 | 38.9 | inactive |
| Itpa (GeneID 16434) | 2 | 74.5 | 72.4 | inactive |
| Itpa (GeneID 16434) | 3 | 60.6 | 64.2 | inactive |
| Zbtb35 (GeneID 72465) | 1 | 56.9 | 65.1 | inactive |
| Zbtb35 (GeneID 72465) | 2 | 86.8 | 78.5 | inactive |
| Zbtb35 (GeneID 72465) | 3 | 68.9 | 75.7 | inactive |
| Cgnl1 (GeneID 68178) | 1 | 62.2 | 66.8 | inactive |
| Cgnl1 (GeneID 68178) | 2 | 73 | 88.3 | inactive |
| Cgnl1 (GeneID 68178) | 3 | 47.5 | 79.7 | inactive |
| Or8s16 (GeneID 257943) | 1 | 85 | 93.1 | inactive |
| Or8s16 (GeneID 257943) | 2 | 93.1 | 83.8 | inactive |
| Or8s16 (GeneID 257943) | 3 | 75.5 | 78.1 | inactive |
| Rnpepl1 (GeneID 108657) | 1 | 101 | 87.5 | inactive |
| Rnpepl1 (GeneID 108657) | 2 | 112 | 66.1 | inactive |
| Rnpepl1 (GeneID 108657) | 3 | 73.9 | 69.2 | inactive |
| Pkp4 (GeneID 227937) | 1 | 68.6 | 61.4 | inactive |
| Pkp4 (GeneID 227937) | 2 | 68.5 | 73.3 | inactive |
| Pkp4 (GeneID 227937) | 3 | 52.5 | 70 | inactive |
| Prmt1 (GeneID 15469) | 1 | 84.3 | 54.1 | inactive |
| Prmt1 (GeneID 15469) | 2 | 153 | 142 | active |
| Prmt1 (GeneID 15469) | 3 | 88.9 | 86.8 | inactive |
| Atcay (GeneID 16467) | 1 | 34 | 18.5 | inactive |
| Atcay (GeneID 16467) | 2 | 71.7 | 80.7 | inactive |
| Atcay (GeneID 16467) | 3 | 92.6 | 95.4 | inactive |
| Chmp1b2 (GeneID 67028) | 1 | 47.8 | 39.5 | inactive |
| Chmp1b2 (GeneID 67028) | 2 | 47.3 | 51.6 | inactive |
| Chmp1b2 (GeneID 67028) | 3 | 56.3 | 53.8 | inactive |
| Or8b51 (GeneID 258780) | 1 | 41.1 | 37.6 | inactive |
| Or8b51 (GeneID 258780) | 2 | 90.5 | 56 | inactive |
| Or8b51 (GeneID 258780) | 3 | 71.3 | 62.1 | inactive |
| Tsg101 (GeneID 22088) | 1 | 56.2 | 56.3 | inactive |
| Tsg101 (GeneID 22088) | 2 | 90.2 | 88 | inactive |
| Tsg101 (GeneID 22088) | 3 | 79.9 | 125 | inactive |
| Sema5b (GeneID 20357) | 1 | 106 | 68.2 | inactive |
| Sema5b (GeneID 20357) | 2 | 64.2 | 63.7 | inactive |
| Sema5b (GeneID 20357) | 3 | 60.8 | 67.4 | inactive |
| Trpm6 (GeneID 225997) | 1 | 56.9 | 51.3 | inactive |
| Trpm6 (GeneID 225997) | 2 | 44.3 | 22.1 | inactive |
| Trpm6 (GeneID 225997) | 3 | 56.1 | 73.4 | inactive |
| Mal (GeneID 17153) | 1 | 55.6 | 70.1 | inactive |
| Mal (GeneID 17153) | 2 | 82.6 | 59.8 | inactive |
| Mal (GeneID 17153) | 3 | 30.7 | 72.8 | inactive |
| Defb15 (GeneID 246082) | 1 | 59.6 | 86.9 | inactive |
| Defb15 (GeneID 246082) | 2 | 95.5 | 102 | inactive |
| Defb15 (GeneID 246082) | 3 | 86.7 | 81.7 | inactive |
| Or8c20 (GeneID 258871) | 1 | 84.8 | 67.7 | inactive |
| Or8c20 (GeneID 258871) | 2 | 86.3 | 45.4 | inactive |
| Or8c20 (GeneID 258871) | 3 | 86.1 | 95.5 | inactive |
| Celsr1 (GeneID 12614) | 1 | 84.9 | 102 | inactive |
| Celsr1 (GeneID 12614) | 2 | 63.2 | 57.9 | inactive |
| Celsr1 (GeneID 12614) | 3 | 96.6 | 101 | inactive |
| Abca8a (GeneID 217258) | 1 | 92.2 | 89.8 | inactive |
| Abca8a (GeneID 217258) | 2 | 151 | 114 | active |
| Abca8a (GeneID 217258) | 3 | 75.6 | 62.7 | inactive |
| Slc25a22 (GeneID 68267) | 1 | 131 | 98.6 | active |
| Slc25a22 (GeneID 68267) | 2 | 113 | 105 | inactive |
| Slc25a22 (GeneID 68267) | 3 | 55.1 | 57.4 | inactive |
| Vmn1r239-ps (GeneID 100504631) | 1 | 100 | 61.8 | inactive |
| Vmn1r239-ps (GeneID 100504631) | 2 | 72.2 | 48.8 | inactive |
| Vmn1r239-ps (GeneID 100504631) | 3 | 49.5 | 73.2 | inactive |
| Tac2 (GeneID 21334) | 1 | 40.4 | 46.5 | inactive |
| Tac2 (GeneID 21334) | 2 | 45.2 | 56.3 | inactive |
| Tac2 (GeneID 21334) | 3 | 83.6 | 66.8 | inactive |
| Clpb (GeneID 20480) | 1 | 215 | 109 | active |
| Clpb (GeneID 20480) | 2 | 73.9 | 87.3 | inactive |
| Clpb (GeneID 20480) | 3 | 79.5 | 85.1 | inactive |
| Gapt (GeneID 238875) | 1 | 76 | 71.8 | inactive |
| Gapt (GeneID 238875) | 2 | 53 | 68.7 | inactive |
| Gapt (GeneID 238875) | 3 | 87.2 | 69.8 | inactive |
| Cnn3 (GeneID 71994) | 1 | 58.2 | 46.4 | inactive |
| Cnn3 (GeneID 71994) | 2 | 80 | 87.6 | inactive |
| Cnn3 (GeneID 71994) | 3 | 91.5 | 73.3 | inactive |
| Aif1 (GeneID 11629) | 1 | 91.8 | 88.3 | inactive |
| Aif1 (GeneID 11629) | 2 | 91.5 | 65.4 | inactive |
| Gfral (GeneID 404194) | 1 | 50 | 77.5 | inactive |
| Gfral (GeneID 404194) | 2 | 75.3 | 76.3 | inactive |
| Gfral (GeneID 404194) | 3 | 38.7 | 47.7 | inactive |
| Olfr908 (GeneID 258872) | 1 | 92.7 | 88.5 | inactive |
| Olfr908 (GeneID 258872) | 2 | 84 | 61.2 | inactive |
| Olfr908 (GeneID 258872) | 3 | 89.1 | 74.9 | inactive |
| Nfil3 (GeneID 18030) | 1 | 97.3 | 106 | inactive |
| Nfil3 (GeneID 18030) | 2 | 98.4 | 97.9 | inactive |
| Nfil3 (GeneID 18030) | 3 | 84 | 94.4 | inactive |
| Bex2 (GeneID 12069) | 1 | 63.5 | 53.5 | inactive |
| Bex2 (GeneID 12069) | 2 | 62.4 | 80 | inactive |
| Bex2 (GeneID 12069) | 3 | 118 | 132 | inactive |

Records listed so far with an active call:
| gene knocked down | reagent | GFP, % of control | viability (ATP), % of control | call |
| --- | --- | --- | --- | --- |
| Ankmy2 (GeneID 217473) | 1 | 138 | 105 | active |
| Hemk2 (GeneID 67768) | 1 | 183 | 80.6 | active |
| Kcnu1 (GeneID 16532) | 1 | 129 | 80 | active |
| Kcnu1 (GeneID 16532) | 2 | 154 | 94.8 | active |
| Prmt1 (GeneID 15469) | 2 | 153 | 142 | active |
| Abca8a (GeneID 217258) | 2 | 151 | 114 | active |
| Slc25a22 (GeneID 68267) | 1 | 131 | 98.6 | active |
| Clpb (GeneID 20480) | 1 | 215 | 109 | active |
